Experimental data: PubChem BioAssay AID686938 (Drosophila RNAi Screening Center, 2013)

Purpose: 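Knock-downs reducing store-operated calcium influx in Drosophila cells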 (primary screen)
Cells: Drosophila S2R+ cells
Reagents: long dsRNA against Drosophila genes, about 0.25 µg dsRNA per well, roughly 10,000 cells
Timing: 5 days of knock-down before the calcium assay
Conditions: thapsigargin (SERCA pump blocker) to empty calcium stores; entry signal taken 4 min after adding it
Measured: 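Duplicate raw fluo-4 intensities per well from a plate reader, at rest and four minutes after thapsigargin emptied calcium stores; entry-to-rest ratio filled for only some wells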
Scale: calcium entry signal: higher = stronger calcium signal after store depletion; entry to resting ratio: higher = more calcium entry relative to resting level; resting calcium signal: higher = higher resting calcium signal
Units: calcium entry signal in fluorescence units; resting calcium signal in fluorescence units
Rule for the call: 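Hit if the duplicate-averaged plate z-score for entry over resting signal is under −3; wells with weak total dye signal (Fmax z < −2) or more than 5 off-targets removed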
Meaning of the calls: active = strongly reduced calcium entry; inactive = no strong reduction
The screen tested about 23,000 reagents; this is an unselected part of those that have a named target and a result. In the full data, 75 (0.33%) were called active. 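Raw plate signals without normalisation; calls rest on plate z-scores that were not deposited; ratio present for only 364 wells.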 The numbers tell different reagents against one gene apart. Reagent sequences are not shown. Not given: the dose of the treatment.

atilla gave calcium entry signal, replicate 1 = 3.22e7; calcium entry signal, replicate 2 = 2.29e7; resting calcium signal, replicate 1 = 1.51e7; resting calcium signal, replicate 2 = 1.12e7; inactive.
Depletion of Oat (Ornithine aminotransferase precursor) came out at: calcium entry signal, replicate 1 = 2.06e7; calcium entry signal, replicate 2 = 3.18e7; resting calcium signal, replicate 1 = 1.01e7; resting calcium signal, replicate 2 = 2.32e7; inactive.
For ninaD (neither inactivation nor afterpotential D) the deposit lists calcium entry signal, replicate 1 = 4.84e7; calcium entry signal, replicate 2 = 3.72e7; resting calcium signal, replicate 1 = 2.24e7; resting calcium signal, replicate 2 = 1.78e7; inactive.
Gug (Grunge) showed calcium entry signal, replicate 1 = 2.64e7; calcium entry signal, replicate 2 = 5.16e7; resting calcium signal, replicate 1 = 1.28e7; resting calcium signal, replicate 2 = 2.06e7; inactive.
Against Frmd5 (FERM domain containing), the entry reads calcium entry signal, replicate 1 = 4.20e7; calcium entry signal, replicate 2 = 6.72e7; resting calcium signal, replicate 1 = 1.97e7; resting calcium signal, replicate 2 = 2.70e7; inactive.
With knock-down of CG8861 #1, the screen gave calcium entry signal, replicate 1 = 3.07e7; calcium entry signal, replicate 2 = 4.85e7; resting calcium signal, replicate 1 = 1.48e7; resting calcium signal, replicate 2 = 2.23e7; inactive.
CG8861 #2 gave calcium entry signal, replicate 1 = 2.14e7; calcium entry signal, replicate 2 = 2.04e7; resting calcium signal, replicate 1 = 1.14e7; resting calcium signal, replicate 2 = 1.19e7; inactive.
RpL8 (Ribosomal protein L8) #1 showed calcium entry signal, replicate 1 = 1.31e7; calcium entry signal, replicate 2 = 1.37e7; resting calcium signal, replicate 1 = 1.02e7; resting calcium signal, replicate 2 = 9.83e6; inactive.
Depletion of RpL8 (Ribosomal protein L8) #2 gave: calcium entry signal, replicate 1 = 1.45e7; calcium entry signal, replicate 2 = 2.30e7; resting calcium signal, replicate 1 = 1.08e7; resting calcium signal, replicate 2 = 1.13e7; inactive.
For RpL6 (Ribosomal protein L6) #1, the entry reads calcium entry signal, replicate 1 = 2.43e7; calcium entry signal, replicate 2 = 2.87e7; entry to resting ratio 1.9; resting calcium signal, replicate 1 = 1.27e7; resting calcium signal, replicate 2 = 1.47e7; inactive.
RpL6 (Ribosomal protein L6) #2 gave calcium entry signal, replicate 1 = 1.50e7; calcium entry signal, replicate 2 = 2.89e7; resting calcium signal, replicate 1 = 9.51e6; resting calcium signal, replicate 2 = 1.45e7; inactive.
Against Dolk (Dolichol kinase), the entry reads calcium entry signal, replicate 1 = 4.97e7; calcium entry signal, replicate 2 = 7.58e7; resting calcium signal, replicate 1 = 2.30e7; resting calcium signal, replicate 2 = 3.42e7; inactive.
Depletion of Nop56 gave: calcium entry signal, replicate 1 = 1.64e7; calcium entry signal, replicate 2 = 1.87e7; resting calcium signal, replicate 1 = 1.01e7; resting calcium signal, replicate 2 = 1.02e7; inactive.
After knock-down of LTV1 (LTV1 ribosome biogenesis factor), the record shows calcium entry signal, replicate 1 = 2.98e7; calcium entry signal, replicate 2 = 3.00e7; resting calcium signal, replicate 1 = 1.59e7; resting calcium signal, replicate 2 = 1.56e7; inactive.

Records above whose gene name begins with C or c:
CG8861 #1: calcium entry signal, replicate 1 = 3.07e7; calcium entry signal, replicate 2 = 4.85e7; resting calcium signal, replicate 1 = 1.48e7; resting calcium signal, replicate 2 = 2.23e7; call = inactive
CG8861 #2: calcium entry signal, replicate 1 = 2.14e7; calcium entry signal, replicate 2 = 2.04e7; resting calcium signal, replicate 1 = 1.14e7; resting calcium signal, replicate 2 = 1.19e7; call = inactive
